Experimental data: publication PMC7034062
No constants are given. Whether binding was seen depends on the method and setting. Binding seen in cells or lysates may run through a third protein. These calls come from enrichment with a bait or labelling near it, and not all partners need be listed.

Target: T1, TAP-Sen1 (2-931) (S. cerevisiae) (UniProt Q00416)
T1 sequence: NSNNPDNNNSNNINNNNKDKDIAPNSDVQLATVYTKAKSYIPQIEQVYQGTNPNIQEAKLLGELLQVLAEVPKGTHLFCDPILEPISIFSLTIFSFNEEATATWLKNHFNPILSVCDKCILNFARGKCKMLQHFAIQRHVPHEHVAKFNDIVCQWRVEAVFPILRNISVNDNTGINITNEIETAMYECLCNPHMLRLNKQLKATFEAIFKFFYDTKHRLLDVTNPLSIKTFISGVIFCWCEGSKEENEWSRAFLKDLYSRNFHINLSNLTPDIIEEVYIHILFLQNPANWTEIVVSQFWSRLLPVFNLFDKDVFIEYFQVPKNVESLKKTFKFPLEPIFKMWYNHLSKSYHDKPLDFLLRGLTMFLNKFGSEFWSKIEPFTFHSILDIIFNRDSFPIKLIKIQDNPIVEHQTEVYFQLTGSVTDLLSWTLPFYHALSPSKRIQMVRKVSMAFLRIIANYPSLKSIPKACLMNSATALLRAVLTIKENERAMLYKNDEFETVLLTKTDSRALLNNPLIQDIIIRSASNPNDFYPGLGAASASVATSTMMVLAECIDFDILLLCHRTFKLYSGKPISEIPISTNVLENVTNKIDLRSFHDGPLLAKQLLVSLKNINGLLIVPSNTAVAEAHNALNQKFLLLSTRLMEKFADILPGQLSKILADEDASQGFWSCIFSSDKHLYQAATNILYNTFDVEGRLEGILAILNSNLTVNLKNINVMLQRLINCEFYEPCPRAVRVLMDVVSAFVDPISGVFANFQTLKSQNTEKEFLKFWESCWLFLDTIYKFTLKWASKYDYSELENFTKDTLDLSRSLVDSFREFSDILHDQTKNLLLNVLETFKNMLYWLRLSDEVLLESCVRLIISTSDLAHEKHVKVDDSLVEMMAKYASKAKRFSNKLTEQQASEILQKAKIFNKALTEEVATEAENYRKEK
Assay: affinity purification with mass spectrometry; TAP-Sen1 (2-931) on TAP-beads, released with AcTEV protease (24°C, 2 h), CBP-Sen1 (2-931) bound to calmodulin beads (4°C, 2 h); cells in G1 and in S phase; four biological replicates pooled

binding: binds
B1: Ctf4 (protein, UniProt Q01454 1-927)
chain: MVSVIDKLVFDFGGKTLVSLAPDNNTLCVANKNGLTKILKTNNPEEEPETLDSSKLVSSIKCYSNSHFLMTTMQGDALRYNIDSSQEELLARFALPLRDCCVIHSGKMAVFGGDDLELILLELDDETHKKHAIKIDEQVSQISYNSQMNILAVSMINGKVQIFSLTSTIPNKVHELNDYIVANSYDDTHRDKILSNMMDDIDKDNDNDLSETADPDENNVADPEFCAANRICTRVAWHPKGLHFALPCADDTVKIFSIKGYSLQKTLSTNLSSTKAHFIDLQFDPLRGTYIAAVDLNNKLTVWNWETSEIHYTREFKRKITNIAWKIQADSKTLDLVLGTWSGSIAIVQNLAESVVSNIPDQSVAESSTKHGLFVDSESDLENLEGNDDINKSDKLFSDITQEANAEDVFTQTHDGPSGLSEKRKYNFEDEEDFIDDDDGAGYISGKKPHNEHSYSRVHKTHSFPISLANTGKFRYMPFSPAGTPFGFTDRRYLTMNEVGYVSTVKNSEQYSITVSFFDVGRFREYHFEDLFGYDLCFLNEKGTLFGQSKTGQIQYRPHDSIHSNWTKIIPLQAGERITSVAATPVRVIVGTSLGYFRSFNQFGVPFAVEKTSPIVALTAQNYRVFSVHYSQFHGLSYSLSELGTSSKRYYKRECPLPMSLPNINSDMKKDANLDYYNFNPMGIKSLFFSSYGDPCIFGSDNTLLLLSKWRSPEESKWLPILDSNMEIWKMSGGKETTDIHVWPLALAYDTLNCILVKGKHIWPEFPLPLPSEMEIRMPVFVKSKLLEENKAILNKKNEIGADTEAEEGEEDKEIQIPVSMAAEEEYLRSKVLSELLTDTLENDGEMYGNENEVLAALNGAYDKALLRLFASACSDQNVEKALSLAHELKQDRALTAAVKISERAELPSLVKKINNIREARYEQQLK
